Assay results from publication PMC6521544.
No constants are given. Whether binding was seen depends on the method and setting. Binding seen in cells or lysates may run through a third protein. Some binding calls cover weakened binding; strength is not graded here. Tags and fused reporters may be left off the sequences shown.

The chains behind the UniProt entries cited, without tags or fusion partners.
UniProt P62136: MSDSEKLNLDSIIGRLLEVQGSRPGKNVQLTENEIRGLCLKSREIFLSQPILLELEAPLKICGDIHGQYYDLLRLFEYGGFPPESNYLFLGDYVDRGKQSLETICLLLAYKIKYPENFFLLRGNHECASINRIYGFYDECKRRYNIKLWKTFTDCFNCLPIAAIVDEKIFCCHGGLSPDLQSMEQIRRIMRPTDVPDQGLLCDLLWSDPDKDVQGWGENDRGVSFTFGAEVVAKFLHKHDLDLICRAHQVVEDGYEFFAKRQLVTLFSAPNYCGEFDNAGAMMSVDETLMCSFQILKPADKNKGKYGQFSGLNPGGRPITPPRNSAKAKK

Legend:
[1] = target: T1, MIIP∆N, FLAG-tagged (MIIP C-terminal 220-388 residues) (UniProt Q5JXC2); assay: co-IP; HEK-293T cells co-transfected with pmCherry-C1-PP1α and pFLAG-CMV4-MIIP∆C or pFLAG-CMV4-MIIP∆N; lysis in 30 mM Tris pH 7.5, 150 mM NaCl, 1% Triton X-100; immunoprecipitation with anti-FLAG, 4 °C; immunoblot with anti-PP1α
T1 sequence: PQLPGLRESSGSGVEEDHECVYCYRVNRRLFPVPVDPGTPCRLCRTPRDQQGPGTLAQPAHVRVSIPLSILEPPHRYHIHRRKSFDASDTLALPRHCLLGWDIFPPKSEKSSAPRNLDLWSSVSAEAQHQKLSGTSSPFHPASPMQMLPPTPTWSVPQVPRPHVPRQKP

[2] = target: T2, MIIP∆C, FLAG-tagged (MIIP N-terminal 1-219 residues) (UniProt Q5JXC2); assay: as above
T2 sequence: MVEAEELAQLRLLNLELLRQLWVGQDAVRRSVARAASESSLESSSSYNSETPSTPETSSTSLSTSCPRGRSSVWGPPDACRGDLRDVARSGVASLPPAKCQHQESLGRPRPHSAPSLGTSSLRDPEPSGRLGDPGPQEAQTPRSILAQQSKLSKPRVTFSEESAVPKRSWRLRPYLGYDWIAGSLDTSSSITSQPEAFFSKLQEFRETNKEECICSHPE

[3] = target: T3, Migration and invasion inhibitory protein (MIIP), HA-tagged (UniProt Q5JXC2); assay: co-IP; HEK-293T cells co-transfected with pLEX-HA-MIIP and pmCherry-C1-PP1α; lysis in 30 mM Tris pH 7.5, 150 mM NaCl, 1% Triton X-100; immunoprecipitation with anti-HA (mouse IgG as control), 4 °C; immunoblot with anti-PP1α
T3 sequence: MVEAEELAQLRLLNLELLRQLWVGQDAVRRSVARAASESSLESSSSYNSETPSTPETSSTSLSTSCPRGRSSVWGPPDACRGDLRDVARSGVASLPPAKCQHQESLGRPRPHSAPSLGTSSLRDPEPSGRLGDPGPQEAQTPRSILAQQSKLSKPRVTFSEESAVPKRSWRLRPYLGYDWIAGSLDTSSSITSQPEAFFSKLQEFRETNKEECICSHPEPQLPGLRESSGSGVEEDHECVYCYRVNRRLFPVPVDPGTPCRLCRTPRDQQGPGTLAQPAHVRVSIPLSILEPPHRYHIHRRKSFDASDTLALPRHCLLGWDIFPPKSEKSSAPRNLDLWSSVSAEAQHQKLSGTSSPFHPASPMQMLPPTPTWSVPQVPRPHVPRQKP

[4] = target: T3, Migration and invasion inhibitory protein (MIIP), HA-tagged; assay: co-IP; LNCaP-HA-MIIP stable cells transfected with pmCherry-C1-PP1α; lysis in 30 mM Tris pH 7.5, 150 mM NaCl, 1% Triton X-100; immunoprecipitation with anti-HA, 4 °C; immunoblot with anti-PP1α

Substance: Serine/threonine protein phosphatase 1α (PP1α), mCherry fusion (from UniProt P62136 1-330) (enzyme)
- binding [1]: binds
- binding [2]: no binding
- binding [3]: binds
- binding [4]: binds
